Some of the results follow.
compound: CC1Cc2ccccc2N1C(=O)C1CCCN(C1)C(=O)CCl (mixture of isomers) [TRIM25 ligand 11 (diastereomer mixture)]; assay: probe-labelled cysteine peptide fold change vs DMSO (competition) (log2 fold change); higher = less target engagement (more negative = stronger competition); details: 50 µM; THP-1; incubation time: 4 h
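Also: competitive chemoproteomic profiling in live THP-1 cells with an iodoacetamide desthiobiotin (IA-DTB) probe, comparing probe-labelled peptide intensities in compound-treated cells against DMSO-treated controls.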

Protein sequences, listed by entry. Tags and fused reporters are not part of them. Lines headed by an entry give the natural chain unless they say otherwise; changes in a name come on top.
UniProt P19793: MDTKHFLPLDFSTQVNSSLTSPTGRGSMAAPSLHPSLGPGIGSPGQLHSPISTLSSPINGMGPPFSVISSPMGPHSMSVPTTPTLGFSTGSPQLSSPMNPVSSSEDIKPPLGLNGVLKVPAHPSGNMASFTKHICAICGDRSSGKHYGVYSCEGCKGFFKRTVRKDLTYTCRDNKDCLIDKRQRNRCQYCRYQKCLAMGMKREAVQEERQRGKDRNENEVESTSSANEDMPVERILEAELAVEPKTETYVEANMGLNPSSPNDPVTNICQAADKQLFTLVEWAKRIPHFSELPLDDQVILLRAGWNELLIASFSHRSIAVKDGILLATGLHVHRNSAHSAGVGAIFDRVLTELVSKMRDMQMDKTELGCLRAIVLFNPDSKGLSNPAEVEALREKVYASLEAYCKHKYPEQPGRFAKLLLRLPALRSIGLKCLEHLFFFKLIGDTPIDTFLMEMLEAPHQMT
UniProt Q8N122, whole entry, looked up: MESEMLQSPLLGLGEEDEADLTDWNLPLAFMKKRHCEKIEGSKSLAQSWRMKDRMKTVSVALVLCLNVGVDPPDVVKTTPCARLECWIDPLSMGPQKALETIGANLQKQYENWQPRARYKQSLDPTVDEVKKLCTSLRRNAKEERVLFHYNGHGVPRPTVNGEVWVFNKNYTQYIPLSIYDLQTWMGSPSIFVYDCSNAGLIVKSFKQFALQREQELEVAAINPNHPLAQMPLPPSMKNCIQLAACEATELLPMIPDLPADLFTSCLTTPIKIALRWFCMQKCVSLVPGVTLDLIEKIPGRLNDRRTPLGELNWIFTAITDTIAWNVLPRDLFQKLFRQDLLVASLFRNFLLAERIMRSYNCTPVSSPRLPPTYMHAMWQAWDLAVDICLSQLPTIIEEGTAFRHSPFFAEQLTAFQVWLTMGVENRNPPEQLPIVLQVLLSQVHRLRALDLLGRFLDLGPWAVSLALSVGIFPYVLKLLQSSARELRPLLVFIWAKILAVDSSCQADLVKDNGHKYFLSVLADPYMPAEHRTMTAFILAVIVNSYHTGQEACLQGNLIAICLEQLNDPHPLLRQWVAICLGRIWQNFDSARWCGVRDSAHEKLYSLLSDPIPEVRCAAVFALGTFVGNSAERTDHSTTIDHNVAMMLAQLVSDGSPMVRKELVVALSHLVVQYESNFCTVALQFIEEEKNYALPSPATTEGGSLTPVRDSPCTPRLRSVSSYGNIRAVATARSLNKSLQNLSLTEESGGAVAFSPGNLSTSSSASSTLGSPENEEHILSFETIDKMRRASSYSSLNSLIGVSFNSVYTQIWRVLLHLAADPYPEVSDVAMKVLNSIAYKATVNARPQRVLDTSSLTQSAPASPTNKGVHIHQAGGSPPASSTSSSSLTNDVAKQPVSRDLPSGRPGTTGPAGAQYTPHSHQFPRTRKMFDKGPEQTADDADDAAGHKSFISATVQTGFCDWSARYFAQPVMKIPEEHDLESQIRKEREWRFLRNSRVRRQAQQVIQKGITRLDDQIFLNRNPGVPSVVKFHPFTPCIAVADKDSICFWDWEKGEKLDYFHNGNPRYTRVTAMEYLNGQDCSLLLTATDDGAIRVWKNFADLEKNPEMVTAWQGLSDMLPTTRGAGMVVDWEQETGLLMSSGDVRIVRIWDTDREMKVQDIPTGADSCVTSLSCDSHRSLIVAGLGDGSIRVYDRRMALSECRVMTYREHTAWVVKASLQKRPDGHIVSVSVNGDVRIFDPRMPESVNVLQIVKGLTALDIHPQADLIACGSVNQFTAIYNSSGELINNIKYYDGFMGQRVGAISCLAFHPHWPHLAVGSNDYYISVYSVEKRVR
UniProt Q9Y3I0: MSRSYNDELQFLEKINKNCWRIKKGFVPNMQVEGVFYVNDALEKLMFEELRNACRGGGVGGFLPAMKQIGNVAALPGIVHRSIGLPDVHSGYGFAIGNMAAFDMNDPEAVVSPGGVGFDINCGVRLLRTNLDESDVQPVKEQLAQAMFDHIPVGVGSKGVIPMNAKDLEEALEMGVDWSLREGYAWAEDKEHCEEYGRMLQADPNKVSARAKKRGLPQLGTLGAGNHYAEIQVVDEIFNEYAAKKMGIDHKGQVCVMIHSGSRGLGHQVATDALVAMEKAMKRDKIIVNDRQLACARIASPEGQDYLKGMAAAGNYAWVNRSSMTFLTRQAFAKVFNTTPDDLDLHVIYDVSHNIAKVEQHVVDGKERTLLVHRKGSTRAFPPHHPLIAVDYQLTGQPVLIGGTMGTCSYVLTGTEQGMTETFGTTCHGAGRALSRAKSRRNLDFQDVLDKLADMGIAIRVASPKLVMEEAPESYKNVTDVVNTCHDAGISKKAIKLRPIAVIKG
UniProt Q96T51: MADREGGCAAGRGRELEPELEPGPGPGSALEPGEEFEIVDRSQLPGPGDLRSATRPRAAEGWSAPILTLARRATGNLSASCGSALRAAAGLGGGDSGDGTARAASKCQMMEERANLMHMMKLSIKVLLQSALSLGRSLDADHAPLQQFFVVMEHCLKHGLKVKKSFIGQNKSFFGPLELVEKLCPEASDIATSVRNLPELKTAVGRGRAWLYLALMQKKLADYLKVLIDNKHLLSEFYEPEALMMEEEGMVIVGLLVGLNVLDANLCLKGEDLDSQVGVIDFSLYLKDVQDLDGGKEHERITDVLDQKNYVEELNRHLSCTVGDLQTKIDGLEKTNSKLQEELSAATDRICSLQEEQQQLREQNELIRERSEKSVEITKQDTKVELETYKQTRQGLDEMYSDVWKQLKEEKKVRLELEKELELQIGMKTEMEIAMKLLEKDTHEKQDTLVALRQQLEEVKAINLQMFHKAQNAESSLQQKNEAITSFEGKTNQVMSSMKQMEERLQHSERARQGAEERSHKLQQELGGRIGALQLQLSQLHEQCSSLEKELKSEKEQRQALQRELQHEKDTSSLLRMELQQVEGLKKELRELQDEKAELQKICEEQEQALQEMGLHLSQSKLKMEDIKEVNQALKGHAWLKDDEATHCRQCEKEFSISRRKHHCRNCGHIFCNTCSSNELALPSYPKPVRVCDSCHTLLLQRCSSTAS
UniProt Q9Y230, whole entry, looked up: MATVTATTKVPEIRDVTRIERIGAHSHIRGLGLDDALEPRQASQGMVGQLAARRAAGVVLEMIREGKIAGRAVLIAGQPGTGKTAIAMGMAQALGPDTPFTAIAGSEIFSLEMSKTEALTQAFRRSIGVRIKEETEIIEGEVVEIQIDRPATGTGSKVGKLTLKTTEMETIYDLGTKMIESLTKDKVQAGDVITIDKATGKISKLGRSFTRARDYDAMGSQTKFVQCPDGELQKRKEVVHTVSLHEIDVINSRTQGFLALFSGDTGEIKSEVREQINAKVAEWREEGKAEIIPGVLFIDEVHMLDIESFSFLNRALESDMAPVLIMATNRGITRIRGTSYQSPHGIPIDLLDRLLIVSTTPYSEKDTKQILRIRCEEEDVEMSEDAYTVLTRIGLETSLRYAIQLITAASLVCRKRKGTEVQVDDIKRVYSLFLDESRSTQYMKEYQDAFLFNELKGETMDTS
UniProt Q8WWV3: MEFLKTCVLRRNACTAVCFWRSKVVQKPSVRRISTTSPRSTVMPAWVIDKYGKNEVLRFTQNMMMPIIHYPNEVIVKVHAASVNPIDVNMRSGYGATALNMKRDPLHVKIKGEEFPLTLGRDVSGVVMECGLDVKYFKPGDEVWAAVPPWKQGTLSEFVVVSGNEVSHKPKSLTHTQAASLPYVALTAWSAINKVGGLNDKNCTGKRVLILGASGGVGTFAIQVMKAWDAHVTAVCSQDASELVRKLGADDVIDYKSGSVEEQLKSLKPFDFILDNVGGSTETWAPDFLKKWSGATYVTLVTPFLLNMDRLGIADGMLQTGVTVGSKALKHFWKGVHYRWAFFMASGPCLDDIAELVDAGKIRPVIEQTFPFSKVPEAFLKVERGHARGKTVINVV
UniProt O75818: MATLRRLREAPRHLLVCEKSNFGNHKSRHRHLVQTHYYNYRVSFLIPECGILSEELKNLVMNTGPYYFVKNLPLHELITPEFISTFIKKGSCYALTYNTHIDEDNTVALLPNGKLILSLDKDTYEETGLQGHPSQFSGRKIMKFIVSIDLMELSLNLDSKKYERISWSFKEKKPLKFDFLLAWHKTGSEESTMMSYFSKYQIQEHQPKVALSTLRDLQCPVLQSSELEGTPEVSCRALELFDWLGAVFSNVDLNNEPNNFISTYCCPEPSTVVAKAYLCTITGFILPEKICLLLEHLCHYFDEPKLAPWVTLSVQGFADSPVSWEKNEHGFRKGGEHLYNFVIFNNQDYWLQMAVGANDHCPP
UniProt A6NKF1: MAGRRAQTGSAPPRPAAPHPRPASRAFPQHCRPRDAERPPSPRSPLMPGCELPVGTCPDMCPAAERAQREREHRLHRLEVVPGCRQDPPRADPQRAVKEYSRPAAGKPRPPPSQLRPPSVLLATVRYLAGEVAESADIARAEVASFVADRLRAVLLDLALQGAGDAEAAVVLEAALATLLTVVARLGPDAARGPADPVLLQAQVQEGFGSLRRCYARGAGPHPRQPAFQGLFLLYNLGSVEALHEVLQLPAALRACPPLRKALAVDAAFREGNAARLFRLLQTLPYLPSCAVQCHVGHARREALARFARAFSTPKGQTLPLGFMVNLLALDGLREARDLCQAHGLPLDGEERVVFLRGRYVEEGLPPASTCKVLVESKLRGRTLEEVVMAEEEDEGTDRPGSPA
UniProt Q9BY42: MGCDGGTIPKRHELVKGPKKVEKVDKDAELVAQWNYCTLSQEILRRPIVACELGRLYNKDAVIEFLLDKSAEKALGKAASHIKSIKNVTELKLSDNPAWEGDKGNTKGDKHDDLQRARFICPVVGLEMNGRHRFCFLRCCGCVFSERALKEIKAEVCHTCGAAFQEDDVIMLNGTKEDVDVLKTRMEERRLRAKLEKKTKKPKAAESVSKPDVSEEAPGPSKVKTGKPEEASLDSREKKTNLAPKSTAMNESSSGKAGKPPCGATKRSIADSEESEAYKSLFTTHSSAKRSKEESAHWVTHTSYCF
UniProt Q5JTH9: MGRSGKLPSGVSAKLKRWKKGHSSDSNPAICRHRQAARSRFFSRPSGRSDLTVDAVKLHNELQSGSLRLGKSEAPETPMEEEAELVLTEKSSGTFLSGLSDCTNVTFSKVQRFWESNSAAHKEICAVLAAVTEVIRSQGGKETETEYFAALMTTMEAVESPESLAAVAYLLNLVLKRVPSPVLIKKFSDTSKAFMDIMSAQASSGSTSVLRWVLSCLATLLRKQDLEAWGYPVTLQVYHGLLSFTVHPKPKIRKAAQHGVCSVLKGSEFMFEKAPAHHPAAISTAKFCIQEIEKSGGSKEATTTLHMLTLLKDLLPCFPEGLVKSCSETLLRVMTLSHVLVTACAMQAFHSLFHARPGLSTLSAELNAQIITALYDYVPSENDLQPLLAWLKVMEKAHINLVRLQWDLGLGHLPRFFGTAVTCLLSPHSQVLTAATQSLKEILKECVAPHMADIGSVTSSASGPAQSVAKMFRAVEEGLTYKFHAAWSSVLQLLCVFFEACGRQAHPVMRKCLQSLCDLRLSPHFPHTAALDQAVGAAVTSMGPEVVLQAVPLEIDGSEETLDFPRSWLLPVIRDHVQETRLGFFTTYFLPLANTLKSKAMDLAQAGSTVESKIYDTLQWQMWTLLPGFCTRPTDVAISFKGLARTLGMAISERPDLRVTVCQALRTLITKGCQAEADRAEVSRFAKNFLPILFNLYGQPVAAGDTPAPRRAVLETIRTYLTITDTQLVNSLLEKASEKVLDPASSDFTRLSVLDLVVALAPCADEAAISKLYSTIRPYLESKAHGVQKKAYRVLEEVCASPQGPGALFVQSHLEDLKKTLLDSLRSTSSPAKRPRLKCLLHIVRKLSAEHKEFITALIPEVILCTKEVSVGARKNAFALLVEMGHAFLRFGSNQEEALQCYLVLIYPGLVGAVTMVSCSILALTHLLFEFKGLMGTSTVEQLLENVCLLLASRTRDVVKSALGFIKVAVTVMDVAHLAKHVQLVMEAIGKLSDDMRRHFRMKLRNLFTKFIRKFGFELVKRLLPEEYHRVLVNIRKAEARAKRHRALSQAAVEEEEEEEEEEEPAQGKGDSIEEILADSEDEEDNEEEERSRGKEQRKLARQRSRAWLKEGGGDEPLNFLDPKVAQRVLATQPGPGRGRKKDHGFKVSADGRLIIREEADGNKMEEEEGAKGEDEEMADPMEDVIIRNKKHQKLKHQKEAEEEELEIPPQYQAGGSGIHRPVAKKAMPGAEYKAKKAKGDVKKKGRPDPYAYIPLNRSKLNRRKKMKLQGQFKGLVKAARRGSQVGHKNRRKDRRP
UniProt Q9UBE0: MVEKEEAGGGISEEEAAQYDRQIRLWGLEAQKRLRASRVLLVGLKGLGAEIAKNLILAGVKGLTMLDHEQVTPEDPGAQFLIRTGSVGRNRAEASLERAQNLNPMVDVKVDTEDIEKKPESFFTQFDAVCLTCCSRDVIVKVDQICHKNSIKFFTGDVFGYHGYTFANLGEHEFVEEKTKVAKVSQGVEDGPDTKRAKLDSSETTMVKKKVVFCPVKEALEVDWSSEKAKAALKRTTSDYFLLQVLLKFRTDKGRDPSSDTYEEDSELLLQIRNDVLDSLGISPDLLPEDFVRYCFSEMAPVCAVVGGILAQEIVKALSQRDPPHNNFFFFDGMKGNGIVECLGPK

Target	probe-labelled cysteine peptide fold change
SACS_Q9NZJ4_1160_WVPACK (UniProt Q9NZJ4)	0.132
RXRA_P19793_195_CLAMGMK (UniProt P19793)	-0.0716
RPTOR_Q8N122_617_CAAVFALGTFVGNSAER (UniProt Q8N122)	0.0812
RPS15A_P62244_30_QVLIRPCSK (UniProt P62244)	0.244
SAMHD1_Q9Y3Z3_177_QLGGGYYVFPGASHNRFEHSLGVGYLAGCLVHALGEK (UniProt Q9Y3Z3)	-0.0034
RTF1_Q92541_599_RQCKPTIVSNSR (UniProt Q92541)	-0.177
RTCB_Q9Y3I0_193_EHCEEYGR (UniProt Q9Y3I0)	-0.0373
RRP1_P56182_62_GLFYCMWMQDKPLLQEELGR (UniProt P56182)	-0.404
RUFY1_Q96T51_351_ICSLQEEQQQLREQNELIR (UniProt Q96T51)	-0.465
RUVBL2_Q9Y230_227_FVQCPDGELQK (UniProt Q9Y230)	-0.0879
RUFY1_Q96T51_351_ICSLQEEQQQLR (UniProt Q96T51)	0.00996
RPS11_P62280_60_KCPFTGNVSIR (UniProt P62280)	-0.248
RUFY1_Q96T51_81_RATGNLSASCGSALR (UniProt Q96T51)	0.018
RRM1_P23921_254_SAGGIGVAVSCIR (UniProt P23921)	0.188
RPS5_P46782_155_RVNQAIWLLCTGAR (UniProt P46782)	-0.158
SAMD9_Q5K651_605_HQDEISSQCISALSLEEINGTILK (UniProt Q5K651)	0.0545
SACS_Q9NZJ4_2255_GNSFKPETMFAATDLYTAEHQDIVCLLQPILNENSHSFR (UniProt Q9NZJ4)	0.0946
RTN4IP1_Q8WWV3_236_AWDAHVTAVCSQDASELVR (UniProt Q8WWV3)	-0.333
RPS3_P23396_119_RACYGVLR (UniProt P23396)	0.045

Reformatted: entries from further up
Target,probe-labelled cysteine peptide fold change
SACS_Q9NZJ4_2255_GNSFKPETMFAATDLYTAEHQDIVCLLQPILNENSHSFR (UniProt Q9NZJ4),0.0946
RTN4IP1_Q8WWV3_236_AWDAHVTAVCSQDASELVR (UniProt Q8WWV3),-0.333
RPS3_P23396_119_RACYGVLR (UniProt P23396),0.045

Further entries:

Target	probe-labelled cysteine peptide fold change
RPS29_P62273_39_KYGLNMCR (UniProt P62273)	-0.114
RPP40_O75818_49_VSFLIPECGILSEELK (UniProt O75818)	0.161
RRP1B_Q14684_286_GRDDCGTFEDTGPLLQFDYK (UniProt Q14684)	-0.23
SAC3D1_A6NKF1_290_LLQTLPYLPSCAVQCHVGHAR (UniProt A6NKF1)	0.121
RSF1_Q96T23_1311_IETDEEESCDNAHGDANQPAR (UniProt Q96T23)	0.0946
RTFDC1_Q9BY42_51_RPIVACELGR (UniProt Q9BY42)	0.073
RRP12_Q5JTH9_102_SSGTFLSGLSDCTNVTFSK (UniProt Q5JTH9)	0.0733
RPS12_P25398_106+108_VVGCSCVVVK (UniProt P25398)	0.161
RXRA_P19793_369_TELGCLR (UniProt P19793)	0.0759
RRP8_O43159_332_NPVHCFDLASLDPR (UniProt O43159)	0.0527
RREB1_Q92766_1251_ITCPHCPR (UniProt Q92766)	0.0348
RRM1_P23921_218_WFTHASPTLFNAGTNRPQLSSCFLLSMKDDSIEGIYDTLK (UniProt P23921)	0.0345
RRP12_Q5JTH9_799_VLEEVCASPQGPGALFVQSHLEDLKK (UniProt Q5JTH9)	0.00477
RSL1D1_O76021_96_SDSEDICLFTK (UniProt O76021)	-0.141
RPTOR_Q8N122_1168_VQDIPTGADSCVTSLSCDSHR (UniProt Q8N122)	-0.0796
RPS17_P08708_35_VCEEIAIIPSK (UniProt P08708)	-0.0597
SAE1_Q9UBE0_214_KVVFCPVK (UniProt Q9UBE0)	-0.131
RSBN1_Q5VWQ0_207_GPDGDPSSCGTDLK (UniProt Q5VWQ0)	-0.197
RPS8_P62241_71+72_LDVGNFSWGSECCTR (UniProt P62241)	-0.0577
